Reference: PubChem BioAssay AID493130 (Broad Institute, 2011)
Inconclusive means that the source gave no clear call. Such entries were picked first, then a sample of the others. The source made the active and inactive calls.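 The calls were made as follows: active = signal-lowering compounds whose fitted half-maximal concentration is at most ten times their highest tested dose; inconclusive = flat fit between -30 and -70%, or poor fit; inactive = flat within 30%, signal rising, or potency beyond limit.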

What follows are molecules tested on POS-1 (Caenorhabditis elegans) binding to mex-3 RNA (assay: C. elegans POS-1 RNA interaction disruptors – biochemical, fluorescence polarization, cherry-picked samples, set 2, counter-screen for MEX-5 RNA-binding inhibitor project, dose response (AID 493130;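 also: POS-1 as maltose binding protein fusion made in E. coli with FITC RNA; 0% = DMSO neutral wells and -100% = excess unlabeled mex3 competitor RNA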)). Conditions: POS-1/mex-3 RNA fluorescence polarization, 1 h; at 10 µM (top of the series).
With `CCCCCCNC(=O)C(C#N)c1nc2ccccc2nc1N1CCOCC1` (stereo unspecified) the activity change, negative = inhibition was inconclusive: -55.2%.
For `CCOC(=O)N1CCN(c2nc3ccccc3nc2C(C#N)C(=O)NCCc2ccccc2)CC1` (stereo unspecified), the activity change, negative = inhibition was inactive: -4.95%.
`CCOC(=O)C(C(=O)OCC)c1cc(Br)c2noc3c2c1C(=O)c1ccccc1-3` was tested, and the activity change, negative = inhibition was inconclusive: -62.3%.
`CCN(CC)c1ccc2cc(S(=O)(=O)c3ccc(C)cc3)c(=O)oc2c1` was tested, and the activity change, negative = inhibition was inconclusive: -111%.
In the case of `Cc1ccc(C2C(C(=O)c3cccs3)=C(O)C(=O)N2c2nnc(C)s2)cc1` (stereo unspecified), the activity change, negative = inhibition was inconclusive: -79%.
For `O=C(O)Cn1c(O)c(C2=c3ccccc3=NC2=O)sc1=O`, the activity change, negative = inhibition was inactive: 4.06%.
`COc1ccccc1N1C(C)=CC(=C(C#N)c2nc3ccccc3s2)C=C1C` was tested, and the activity change, negative = inhibition was inconclusive: 30.4%.
`COc1cc([N+](=O)[O-])ccc1N/C=C/C(=O)c1cccs1` was tested, and the activity change, negative = inhibition was inconclusive: -21.6%.
With `COc1ccc2cc(N=Cc3nc(-c4ccc(C)cc4)oc3O)cnc2c1` the activity change, negative = inhibition was inconclusive: 9.65%.
For `COc1ccc2cc3c(N)c(C(=O)NCc4ccco4)sc3nc2c1`, the activity change, negative = inhibition was inactive: -7.05%.
For `Cc1cc(C)c2cc3c(N)c(C(=O)N4CCc5ccccc5C4)sc3nc2c1`, the activity change, negative = inhibition was inactive: -0.417%.
With `CCOc1ccc(/C=C2\SC(=S)N(Nc3ccccc3)C2=O)cc1OC` the activity change, negative = inhibition was inactive: -3.72%.
With `O=C(CCc1ccccc1)N/N=C\c1cc2c(cc1Br)OCO2` the activity change, negative = inhibition was inactive: -4.54%.
For `CCOc1ccc(Cn2c3ccc(OC)cc3c3nc4ccccc4nc32)cc1OC`, the activity change, negative = inhibition was inconclusive: -46.4%.
In the case of `COCCNC(=S)N/N=C/c1c2ccccc2cc2ccccc12`, the activity change, negative = inhibition was inconclusive: -24.4%.
With `CCN1/C(=C/C=C/c2oc3ccc(-c4ccccc4)cc3[n+]2CC)Oc2ccc(-c3ccccc3)cc21` the activity change, negative = inhibition was inconclusive: -103%.
In the case of `COc1ccc(NS(=O)(=O)c2cccc(C(=O)NNC(=O)c3ccccc3O)c2)cc1`, the activity change, negative = inhibition was inconclusive: -20.9%.
`O=S(=O)(O)c1cccc2c(N=Nc3ccc(O)c4ncccc34)cccc12` was tested, and the activity change, negative = inhibition was inconclusive: -110%.
For `COc1ccc(S(=O)(=O)C(C#N)c2nc3ccccc3nc2N2CCCC(C)C2)cc1` (stereo unspecified), the activity change, negative = inhibition was inconclusive: -34%.
In the case of `COc1ccc(-n2c(O)c(/C=N/NS(=O)(=O)c3cc(C)ccc3C)c3ccccc3c2=O)cc1OC`, the activity change, negative = inhibition was inconclusive: -30.7%.
For `CSc1ccccc1N=Cc1nc(-c2ccccc2)oc1O`, the activity change, negative = inhibition was inconclusive: -24%.
In the case of `Cc1nn(C(C)C(=O)NNC(=S)Nc2ccc(Cl)cc2)c(C)c1[N+](=O)[O-]` (stereo unspecified), the activity change, negative = inhibition was inactive: -0.286%.
In the case of `CCOc1cc(C=C2C(=O)c3ccccc3C2=O)ccc1OCC(=O)Nc1ccc(C)cc1`, the activity change, negative = inhibition was inconclusive: -41.8%.
With `Nc1c(C(=O)C2CC2)sc2nc(-c3cccs3)cc(C(F)(F)F)c12` the activity change, negative = inhibition was inconclusive: -34.4%.
For `CC(C)(C)OC(=O)NCCCC1=CC2=CC(=O)C(C)(O)C(=O)C2=CO1` (stereo unspecified), the activity change, negative = inhibition was inactive: -18.4%.
With `O=c1oc2c(O)cccc2cc1-c1nc2ccccc2[nH]1` the activity change, negative = inhibition was inconclusive: -36.8%.
